# Reference: paper PMC7190567
# Chains of the proteins cited; added tags and fusions are not shown. Residues count along the entry.
# UniProt Q7TPH6: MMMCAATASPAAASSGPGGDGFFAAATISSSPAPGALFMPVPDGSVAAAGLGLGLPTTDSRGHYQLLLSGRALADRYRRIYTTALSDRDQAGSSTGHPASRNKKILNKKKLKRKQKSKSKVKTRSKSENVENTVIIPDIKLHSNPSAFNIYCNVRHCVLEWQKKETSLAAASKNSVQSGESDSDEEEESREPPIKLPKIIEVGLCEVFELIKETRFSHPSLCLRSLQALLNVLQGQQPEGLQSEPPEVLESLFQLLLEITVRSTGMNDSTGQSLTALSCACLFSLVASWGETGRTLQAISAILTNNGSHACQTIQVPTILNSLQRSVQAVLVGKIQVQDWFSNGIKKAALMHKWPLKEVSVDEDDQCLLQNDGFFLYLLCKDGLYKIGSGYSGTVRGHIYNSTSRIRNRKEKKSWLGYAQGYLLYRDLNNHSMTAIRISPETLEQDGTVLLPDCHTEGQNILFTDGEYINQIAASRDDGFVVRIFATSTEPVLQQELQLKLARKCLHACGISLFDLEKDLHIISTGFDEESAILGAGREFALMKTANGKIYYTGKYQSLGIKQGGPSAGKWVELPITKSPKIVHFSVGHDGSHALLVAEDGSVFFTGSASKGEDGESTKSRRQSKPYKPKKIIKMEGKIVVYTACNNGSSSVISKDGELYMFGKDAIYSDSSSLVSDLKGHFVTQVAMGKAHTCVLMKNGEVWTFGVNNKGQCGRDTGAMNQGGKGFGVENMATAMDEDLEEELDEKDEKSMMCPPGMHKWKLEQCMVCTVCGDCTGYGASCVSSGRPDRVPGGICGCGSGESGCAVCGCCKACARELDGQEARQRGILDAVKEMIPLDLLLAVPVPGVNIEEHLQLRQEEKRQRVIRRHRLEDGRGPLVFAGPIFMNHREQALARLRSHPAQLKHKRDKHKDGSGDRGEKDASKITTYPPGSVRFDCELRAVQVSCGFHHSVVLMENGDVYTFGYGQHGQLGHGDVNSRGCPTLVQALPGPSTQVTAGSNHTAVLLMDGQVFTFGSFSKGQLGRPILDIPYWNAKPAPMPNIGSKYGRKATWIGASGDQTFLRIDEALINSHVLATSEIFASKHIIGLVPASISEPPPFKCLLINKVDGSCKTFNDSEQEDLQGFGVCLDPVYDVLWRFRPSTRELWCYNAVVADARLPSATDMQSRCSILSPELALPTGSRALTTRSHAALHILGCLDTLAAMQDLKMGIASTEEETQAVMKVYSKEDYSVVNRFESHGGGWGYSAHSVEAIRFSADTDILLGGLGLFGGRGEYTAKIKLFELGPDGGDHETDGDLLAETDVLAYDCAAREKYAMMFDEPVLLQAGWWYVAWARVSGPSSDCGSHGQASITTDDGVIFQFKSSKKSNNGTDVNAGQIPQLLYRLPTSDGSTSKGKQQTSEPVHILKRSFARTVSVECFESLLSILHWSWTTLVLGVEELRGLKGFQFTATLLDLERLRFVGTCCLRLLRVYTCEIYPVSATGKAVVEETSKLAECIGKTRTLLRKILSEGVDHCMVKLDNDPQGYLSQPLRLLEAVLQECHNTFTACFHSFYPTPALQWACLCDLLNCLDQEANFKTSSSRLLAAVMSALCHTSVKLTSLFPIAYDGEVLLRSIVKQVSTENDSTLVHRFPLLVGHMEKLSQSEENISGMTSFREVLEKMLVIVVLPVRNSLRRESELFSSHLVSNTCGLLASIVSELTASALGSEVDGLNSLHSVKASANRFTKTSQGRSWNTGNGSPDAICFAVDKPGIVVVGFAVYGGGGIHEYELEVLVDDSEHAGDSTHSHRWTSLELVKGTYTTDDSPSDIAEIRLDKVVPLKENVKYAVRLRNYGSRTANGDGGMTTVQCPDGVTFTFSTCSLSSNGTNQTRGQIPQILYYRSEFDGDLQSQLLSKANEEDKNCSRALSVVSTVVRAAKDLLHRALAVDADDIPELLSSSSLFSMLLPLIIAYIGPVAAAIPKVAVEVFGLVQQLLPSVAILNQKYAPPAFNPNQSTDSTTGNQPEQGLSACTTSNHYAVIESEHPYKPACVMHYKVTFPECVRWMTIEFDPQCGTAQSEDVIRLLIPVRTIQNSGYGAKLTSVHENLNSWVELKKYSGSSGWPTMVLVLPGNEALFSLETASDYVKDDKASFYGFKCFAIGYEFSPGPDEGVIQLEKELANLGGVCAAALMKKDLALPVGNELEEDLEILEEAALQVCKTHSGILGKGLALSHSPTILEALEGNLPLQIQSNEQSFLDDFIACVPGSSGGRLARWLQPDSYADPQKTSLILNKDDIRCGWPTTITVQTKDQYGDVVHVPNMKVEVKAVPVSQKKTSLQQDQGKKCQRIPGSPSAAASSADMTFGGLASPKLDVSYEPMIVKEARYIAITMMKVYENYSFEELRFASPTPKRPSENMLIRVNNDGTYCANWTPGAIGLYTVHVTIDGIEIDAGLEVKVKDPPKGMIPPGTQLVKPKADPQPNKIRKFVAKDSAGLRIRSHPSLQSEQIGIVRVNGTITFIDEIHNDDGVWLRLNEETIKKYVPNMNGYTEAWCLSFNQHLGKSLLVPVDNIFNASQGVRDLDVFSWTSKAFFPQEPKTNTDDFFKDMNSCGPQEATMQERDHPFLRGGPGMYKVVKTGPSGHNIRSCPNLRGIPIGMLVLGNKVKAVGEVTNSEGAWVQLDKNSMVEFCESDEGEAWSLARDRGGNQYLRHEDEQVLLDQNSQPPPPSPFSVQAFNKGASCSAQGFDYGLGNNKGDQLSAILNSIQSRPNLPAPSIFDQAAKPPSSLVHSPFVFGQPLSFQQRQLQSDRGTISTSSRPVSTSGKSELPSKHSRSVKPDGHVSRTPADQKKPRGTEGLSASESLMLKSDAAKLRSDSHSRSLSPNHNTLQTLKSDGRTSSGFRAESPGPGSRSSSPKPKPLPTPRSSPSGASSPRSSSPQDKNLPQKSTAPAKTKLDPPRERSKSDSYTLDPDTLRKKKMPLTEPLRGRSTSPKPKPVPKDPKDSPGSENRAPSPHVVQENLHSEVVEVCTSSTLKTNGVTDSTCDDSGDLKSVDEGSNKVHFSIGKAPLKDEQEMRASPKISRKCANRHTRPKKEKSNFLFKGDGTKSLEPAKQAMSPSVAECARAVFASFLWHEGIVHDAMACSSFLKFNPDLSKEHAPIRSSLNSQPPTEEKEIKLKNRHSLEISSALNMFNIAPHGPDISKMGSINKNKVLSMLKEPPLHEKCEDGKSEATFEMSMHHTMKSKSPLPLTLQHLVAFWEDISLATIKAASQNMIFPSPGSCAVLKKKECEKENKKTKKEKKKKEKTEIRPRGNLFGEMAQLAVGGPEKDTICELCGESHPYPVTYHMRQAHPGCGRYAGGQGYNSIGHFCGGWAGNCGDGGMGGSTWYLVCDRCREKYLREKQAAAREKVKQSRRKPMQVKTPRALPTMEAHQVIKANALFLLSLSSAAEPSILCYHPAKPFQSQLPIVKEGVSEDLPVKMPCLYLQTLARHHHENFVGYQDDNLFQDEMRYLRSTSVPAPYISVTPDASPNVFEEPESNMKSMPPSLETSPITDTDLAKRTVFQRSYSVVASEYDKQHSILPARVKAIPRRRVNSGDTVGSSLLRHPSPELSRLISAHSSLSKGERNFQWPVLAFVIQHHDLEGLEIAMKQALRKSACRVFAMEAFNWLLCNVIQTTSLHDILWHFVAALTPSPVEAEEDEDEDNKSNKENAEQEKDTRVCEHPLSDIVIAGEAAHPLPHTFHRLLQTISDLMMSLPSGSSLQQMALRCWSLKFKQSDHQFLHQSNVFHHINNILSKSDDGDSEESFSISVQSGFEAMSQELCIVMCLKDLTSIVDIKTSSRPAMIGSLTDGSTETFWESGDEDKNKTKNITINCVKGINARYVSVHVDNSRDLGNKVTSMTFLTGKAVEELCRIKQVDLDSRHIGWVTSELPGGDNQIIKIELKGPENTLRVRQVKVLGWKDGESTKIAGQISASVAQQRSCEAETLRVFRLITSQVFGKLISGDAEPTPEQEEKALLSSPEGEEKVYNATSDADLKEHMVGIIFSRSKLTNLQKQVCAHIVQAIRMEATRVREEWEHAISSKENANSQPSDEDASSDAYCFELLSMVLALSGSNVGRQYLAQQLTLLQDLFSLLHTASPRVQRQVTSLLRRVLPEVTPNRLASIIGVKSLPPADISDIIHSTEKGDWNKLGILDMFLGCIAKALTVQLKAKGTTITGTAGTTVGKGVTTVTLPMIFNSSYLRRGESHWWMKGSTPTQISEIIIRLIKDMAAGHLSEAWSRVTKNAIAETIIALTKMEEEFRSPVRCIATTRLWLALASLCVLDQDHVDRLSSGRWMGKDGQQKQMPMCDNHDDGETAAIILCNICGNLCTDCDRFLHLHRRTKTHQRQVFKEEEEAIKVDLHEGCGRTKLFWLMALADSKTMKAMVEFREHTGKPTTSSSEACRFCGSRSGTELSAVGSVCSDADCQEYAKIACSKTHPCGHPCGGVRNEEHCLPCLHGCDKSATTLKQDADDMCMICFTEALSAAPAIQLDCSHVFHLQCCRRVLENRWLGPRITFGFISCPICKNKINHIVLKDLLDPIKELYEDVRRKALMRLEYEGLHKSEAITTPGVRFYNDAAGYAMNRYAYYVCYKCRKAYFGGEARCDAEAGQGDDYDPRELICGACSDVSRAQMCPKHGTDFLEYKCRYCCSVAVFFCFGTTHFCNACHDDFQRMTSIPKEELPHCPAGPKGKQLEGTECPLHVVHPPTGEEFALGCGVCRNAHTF
# UniProt Q8BYK8: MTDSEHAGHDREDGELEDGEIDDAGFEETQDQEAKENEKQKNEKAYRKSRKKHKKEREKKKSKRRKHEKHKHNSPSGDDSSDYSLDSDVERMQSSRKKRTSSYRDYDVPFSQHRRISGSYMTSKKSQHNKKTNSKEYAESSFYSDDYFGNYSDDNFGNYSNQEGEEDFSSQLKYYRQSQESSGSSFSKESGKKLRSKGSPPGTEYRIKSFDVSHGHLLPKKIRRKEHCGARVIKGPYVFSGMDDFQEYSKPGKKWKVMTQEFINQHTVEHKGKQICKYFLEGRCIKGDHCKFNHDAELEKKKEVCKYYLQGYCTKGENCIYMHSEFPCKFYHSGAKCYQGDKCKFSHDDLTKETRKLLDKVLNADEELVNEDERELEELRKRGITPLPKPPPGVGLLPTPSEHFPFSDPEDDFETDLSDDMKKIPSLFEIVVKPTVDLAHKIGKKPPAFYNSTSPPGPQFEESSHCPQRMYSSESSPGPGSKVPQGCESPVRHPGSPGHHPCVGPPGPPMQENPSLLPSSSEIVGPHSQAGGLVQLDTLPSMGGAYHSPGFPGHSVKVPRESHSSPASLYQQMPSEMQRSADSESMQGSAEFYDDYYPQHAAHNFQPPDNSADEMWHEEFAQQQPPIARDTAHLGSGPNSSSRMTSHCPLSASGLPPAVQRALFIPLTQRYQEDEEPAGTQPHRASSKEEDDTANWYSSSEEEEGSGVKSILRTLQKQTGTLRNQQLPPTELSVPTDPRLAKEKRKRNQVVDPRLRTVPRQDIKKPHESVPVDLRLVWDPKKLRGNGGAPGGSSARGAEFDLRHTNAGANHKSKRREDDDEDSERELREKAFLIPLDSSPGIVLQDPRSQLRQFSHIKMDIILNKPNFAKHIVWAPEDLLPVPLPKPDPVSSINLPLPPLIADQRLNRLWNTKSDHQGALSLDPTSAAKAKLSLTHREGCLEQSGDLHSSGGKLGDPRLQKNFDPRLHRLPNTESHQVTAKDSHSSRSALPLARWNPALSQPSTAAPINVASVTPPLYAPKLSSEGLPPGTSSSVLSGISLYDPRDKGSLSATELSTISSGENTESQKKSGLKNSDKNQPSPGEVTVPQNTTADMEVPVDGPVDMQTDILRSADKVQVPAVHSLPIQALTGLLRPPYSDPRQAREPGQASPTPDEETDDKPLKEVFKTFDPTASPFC
# UniProt Q60936, residues 160-645: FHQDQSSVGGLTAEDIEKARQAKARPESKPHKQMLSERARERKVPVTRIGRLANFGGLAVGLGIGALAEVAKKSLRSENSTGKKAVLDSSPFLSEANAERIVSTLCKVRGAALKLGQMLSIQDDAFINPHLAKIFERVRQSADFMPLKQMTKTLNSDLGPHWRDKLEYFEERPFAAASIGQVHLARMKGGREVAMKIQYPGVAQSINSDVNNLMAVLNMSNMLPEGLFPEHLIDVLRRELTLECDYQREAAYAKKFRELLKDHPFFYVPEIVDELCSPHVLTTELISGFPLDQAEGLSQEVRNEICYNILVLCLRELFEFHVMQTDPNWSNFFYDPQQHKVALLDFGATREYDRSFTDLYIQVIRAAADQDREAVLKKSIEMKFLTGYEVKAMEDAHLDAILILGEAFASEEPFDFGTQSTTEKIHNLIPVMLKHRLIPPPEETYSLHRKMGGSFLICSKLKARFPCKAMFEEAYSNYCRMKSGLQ
# No constants are given. Whether binding was seen depends on the method and setting. In cells and extracts the contact can be indirect. Here binding means that the protein was enriched with, or labelled near, the bait; the list need not be complete.
# T1: Caveolin-1 (wild type) (dog) (UniProt P33724)
# T1 sequence: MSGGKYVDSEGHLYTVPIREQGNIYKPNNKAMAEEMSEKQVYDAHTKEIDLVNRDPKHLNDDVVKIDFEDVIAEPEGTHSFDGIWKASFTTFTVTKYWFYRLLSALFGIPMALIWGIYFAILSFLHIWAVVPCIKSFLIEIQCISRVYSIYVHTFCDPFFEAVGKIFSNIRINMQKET
# B1: Nucleolar RNA helicase 2 (protein, UniProt Q9JIK5 1-851)
# chain: MPGKLRSGAKLGSDGAEESMETLPKPSEKKTRKEKTKSKTEEATEGMEEAVSSKAKKTNKKGPSEDDVDPPKSRKAKKQEEEPQDDTASTSKTSKKKKEPLEKQADSETKEIITEEPSEEEADMPKPKKMKKGKEANGDAGEKSPKLKNGLSQPSEEEADIPKPKKMKKGKEANGDAGEKSPKLKNGLSQPSEEEVDIPKPKKMKKGKEASGDAGEKSPRLKDGLSQPSEPKSNSSDAPGEESSSETEKEIPVEQKEGAFSNFPISEETVKLLKARGVNFLFPIQAKTFHHVYSGKDLIAQARTGTGKTFSFAIPLIEKLQGGLQERKRGRAPQVLVLAPTRELANQVSKDFSDITKKLSVACFYGGTPYGGQIERMRSGIDILVGTPGRIKDHLQNGKLDLTKLKHVVLDEVDQMLDMGFADQVEEILCVAYKKDSEDNPQTLLFSATCPHWVFNVAKKYMKSTYEQVDLIGKKTQKAAITVEHLAIKCHWTERAAVIGDVIRVYSGHQGRTIIFCETKKDAQELSQNTCIKQDAQSLHGDIPQKQREITLKGFRNGNFGVLVATNVAARGLDIPEVDLVVQSCPPKDVESYIHRSGRTGRAGRTGVCICFYQNKEEYQLAQVEQKAGIKFKRIGVPSATEIIKASSKDAIRLLDSVPPTAISHFKQSAEKLIEEKGAVEALAAALAHISGATSVDQRSLINSQAGFVTMILRCSIEMPNISYAWKELKEQLGESIDAKVKGMVFLKGKLGVCFDVRTEAVTEIQEKWHDSRRWQLTVATEQPELEGPPDGYRGRMGQRDGSRGAFRGQRGGSRNFRGQGQRGGSRNFRGQRPGGGNRGQKRSFSKAFGQ
# B2: BADHD1, Bromo adjacent homology domain-containing 1 protein (protein, UniProt Q497V6 1-772)
# chain: MTHTRRKSLPMLSSGPTGRGEPLQMEDSNMEQGTEDVEPGMPESPGHLTGRRKNYPLRKRSLVPEKPKACKVLLTRLENVAGPRSADEADELPPDLPKPPSPTSSSEDAGLVQPRKRRLASLNAEALNNLLLEREETSSLAGARRSRGGDPHRSRDRATGSWSFSKKRPRLGDLGEGSRDLSPELAPDEGARRDGDPAPKRLASLNAAAFLKLSQERELPLRPSRAQAEADGRSTEPLAPRILRPKVNGKNCPKARQGAGSGEATGPPNWQEQPDERWPSAPPHGPPTQPSHQAPGKALENPLRPNLPLLMGGQAALKPEPGRPGEESPAPKQELHQPSFPAPQLSPLPMPGNPADYSGPCGGPELTALGSFYLYCGQDGLQCGAYSPCPMLPEGKLSPVAAPNEGLLMAPSSVPSGVPFQHPPWSAPRYCSSEDTGANGYSICGVLPLSLTHIGTTCGGCPYKMPFTAEGCRSLGQLEFPLPEAGHPASPAHPLLGCPVPSVPPAAEPIPHLQTPISEPQTVARACPQSAKPPSGSKSGLRTGSSCRHTVRSKAARRPSHPKQPRAQRPRPRRRRRRRTNGWVPVGAACEKAVYVLDEPEPAIRKSYQAVERHGETIRVRDTVLLKSGPRKTSTPYVAKISALWENPESGELMMSLLWYYRPEHLQGGRSPSMHEPLQNEVFASRHQDQNSVACIEEKCYVLTFAEYCRFCAMAKRRGEGLPSRKTALVPPSADYSTPPHRTVPEDTDPELVFLCRHVYDFRHGRILKNPQ
# B3: Spermatogenesis-associated protein 17 (protein, UniProt Q9D552 1-379)
# chain: METNSNNFGELQELKDMATLAKLLARAPFLESQYYFRNRAVDSFRKFENDAAVMIQSWFRGCQVRAYMRHLNRVVTIIQKWWRSYLGRKFYQLVVEAAYYTMKMNLYNEMAVRIQRRWRGFRIRKYCFNYYYLKEYLRAVSETNDAIREALEEFAEMKEREERKVLLEREEKQKDYQARKMHYLLSTKQISGIYNSPFREHPDPWELRLQKAKPLGHQKYTAEKGKTSQSPSNWLACTSVHSFPQSESLPPISRKRCQGPFRDINEVLEQRYKPLEPTLRVAEPINHLRLAREAFKQEERMRNVQDKMFLPFSSYHKKEKYIPMIHSSSAYNSDSYGQKHFRSQDSKKWISDKDFQTVLPSFQLFSKYGKLYSKAGEIV
# B4: RNA exonuclease 1 homolog (protein, UniProt Q7TT28 1-1213)
# chain: MLRSTGFFRSIDCPYWAGAPGGPCRRPYCHFRHRGARGPGAPGSGGAASPASGLGYDPYNPELPQPPVQRENGALGQGDGMLELELVNQAIEAVRGEVELEQRRYQELLETARGHSAGPSALAPCSPATSIDDDDTFSLALTYTPGGLLSPDAAYQPTPLAVPAEPGHKYSLAPSDRSQGRAAGGAGALEYVPKAVGQPRRCGRPVSGGKYVVDSSKPSTDLEYDPLSNYSARHLGRASARDERATKRPRGSRGAEPYTPALKKPCDPFGGCEARFSDSEDDVTSPPKADVSSPKAGADPESKAPGKPVSKEGREHEDGGLRGTKEMAVQYDVEDLGQPPKAPDTVSVVKPGSPARASQDARVPKEGKAKKKKSGTSASLSHKDKVRKKDKKKEKDPARPRGKEKVCTDKKKLPASNPRGKAQGPEGTKKKPSSATTVASSGKGGSGRPSSTGPQDSGPGPHAPLAWKAGSAKKMSSGKLVERKARSLDEGAPQDTPKLKKRALSHAELFGDESEEEDSSLGAGAPRVWPPTLPSLSSDSESDSDSSLGLDETKVPKRLKAAPPASPVPPSPLSSSSSSSGASQCAEEDVDYSALEKEVDFDVDPMEECLRIFNESTSVKTEDKGRLARQPPKEKAEEKTHAGLTTLFPGQKRRVSHLCKPGKESEAPKRTPVAPPARPPTAQEVCYRRAQLAQRDSASWLQAAPRPTERLSSVHISAPGEKRRIAHVPNPRLAAAPTGAKRALSASSSQASHGPEPGSQPLKTRTLSGMASKTTTTVTPKRIAHSPSLQSLKKPVIPKEFGGKVPTVVRQRYLNLFIEECLKFCSSNQEAIEKALNEEKVAYDRSPSKNIYLNVAVNTLKKLRGLVPNTVPNLSKASGRRVVSHEVVLGGKLAAKTSFSLSRPSSPRVEELKGTALYSRLREYLLTQEQLKENGYPFPHPERPGGAIIFTAEEKKPKDPSCRICCRCGTEYLVSSSGRCVRSEECYYHWGRLRRNRVAGGWETQYMCCSAAVGSVGCQVAKQHVQDGRKENLEGFVRTFQKELPEDAHAGVFALDCEMSYTTYGLELTRVTVVDTDMQVVYDTFVKPDNEVVDYNTRFSGVTEADLVDTSITLRDVQAVLLSMFSADTILIGHSLESDLLALKVIHGTVVDTSVLFPHRLGLPYKRSLRNLMADYLRQIIQDNVDGHSSSEDASACMHLVIWKIREDAKTKR
# B5: Amyloid beta A4 precursor protein-binding family B member 2 (protein, UniProt Q9DBR4 1-760)
# chain: MSEVLPADSGVGTLAVFMASSGSTDIANRNSPATPPNTLNLRSSHNELLNAEIKHSDAKNSTPPKCRKKYALTNIQAAMGLSDPAVQPLLGNGSANIKLVKNGENQLRKAAEQGQQDPNKNLSPAAVINLTSEKLEVKDPHPQESSGCEILPSQPRRTKSFLNYYADLETSARELGQNLGPCQGVGEEKAQPGPGQAPVVIGNGDLLPQKPNKPQSSPEDGQVATVSSSPETKKDHPKTGAKTDCALHRIQNLAPSDEESSWTTLSQDSASPSSPDETDIWSDHSFQTDPDLPPGWKRVNDIAGTYYWHIPTGTTQWERPVSIPADLHGSRKGSLSSVTPSPTPENEKQPWSDFAVLNGGKINSDIWKDLHAATVNPDPSLKEFEGATLRYASLKLRNAPHGDDDDSCSINSDPEAKCFAVRSLGWVEMAEEDLAPGKSSVAVNNCIRQLSYCKNDIRDTVGIWGEGKDMYLSLENDMLSLVDPMDRSVLHSQPIVNIRVWGVGRDNGRERDFAYVARDKDTRILKCHVFRCDTPAKAIATSLHEICSKIMAERKNAKALACSSLQERTNMSLDVPLQVDFPTPKTELVQKFRVQYLGMLPVDRPVGMDTLNSAIENLMTSSSKEDWPSVNMNVADATVTVISEKNEEEVLVECRVRFLSFMGVGKDVHTFAFIMDTGNQRFECHVFWCEPNAANVSEAVQAACMLRYQKCLVARPPSQKVRPPPPPADSVTRRVTTNVKRGVLSLIDTLKQKRPVTETP
# Molecular target: T1, Caveolin-1 (wild type) (dog)
# Assay: affinity purification with mass spectrometry; CAV1 immunoprecipitated with polyclonal anti-CAV1 on Dynabeads from B16F10(CAV1-E-cadherin) cells; trypsin digest, nano-ESI-MS/MS on an LTQ ion trap, Mascot; only proteins unique to this sample listed
row,binding,Molecule
1,binds,B1
2,binds,B2

# Molecular target: T1, Caveolin-1 (wild type) (dog)
# Assay: affinity purification with mass spectrometry; CAV1 immunoprecipitated with polyclonal anti-CAV1 on Dynabeads from B16F10(CAV1) cells (no E-cadherin); trypsin digest, nano-ESI-MS/MS on an LTQ ion trap, Mascot; only proteins unique to this sample listed
row,binding,Molecule
1,binds,Hepatocyte growth factor-regulated tyrosine kinase substrate (from UniProt Q99LI8 1-775)
2,binds,Voltage-dependent P/Q-type calcium channel subunit alpha-1 (from UniProt P97445 1-2368)
3,binds,E3 ubiquitin -protein ligase MYCBP2 (from UniProt Q7TPH6 1-4749)
4,binds,Protein 4732456N10Rik (from UniProt E9Q1Z0)
5,binds,Histone acetyltransferase KAT6A (from UniProt Q8BZ21 1-2003)
6,binds,Low-density lipoprotein receptor-related protein 2 (from UniProt A2ARV4 26-4660)
7,binds,Zinc finger CCCH domain-containing protein 6 (from UniProt Q8BYK8 1-1177)
8,binds,Pleckstrin homology domain-containing family H member 2 (from UniProt Q8C115 1-1491)
9,binds,Nuclear envelope spectrin repeat protein 2 (from UniProt Q6ZWQ0 1-6874)
10,binds,G-protein coupled receptor 75 (from UniProt Q6X632 1-540)
11,binds,"Chaperone activityof bc1 complex-like, mitochondrial (from UniProt Q60936 160-645)"
12,binds,Chromodomain-helicase-DNA-binding protein 9 (from UniProt Q8BYH8 1-2885)
13,binds,Oog4 protein (mouse (endogenous in B16F10))
14,binds,Protein Atp2b1 (from UniProt G5E829 1-1220)
15,binds,B3
16,binds,B4
17,binds,B5
